Percent effect of library compounds

Results are given as percent effect.
The record does not define 0% and 100%; most values in the screen are far below 50% and negative numbers occur (in some assays of this library far below -100).
The compounds are a random part of those screened.
Two or more numbers in one place are separate tests of the same structure; such repeats can differ widely.

Mtb glucose medium: 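Growth of Mycobacterium tuberculosis over 3 days (7H9 medium with glucose and tyloxapol); the read-out is not stated. Tested at 50 µM. Higher reads as more growth inhibition (inferred: compounds with an IC50 in retests scored well above the rest). Size under these conditions: about 69,000 compounds, about 760 of them at 50% or above in at least one test.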
Mtb cholesterol medium: 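Growth of Mycobacterium tuberculosis over 4 days (cholesterol / DPPC medium with tyloxapol); the read-out is not stated. Concentration: 50 µM. Direction is inferred from retests: higher values go with more growth inhibition. About 69,000 compounds were tested under these conditions; 0.54% (about 370) showed 50% or more at least once.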

SMILES: Cc1cc(S(=O)(=O)NC(=O)CCc2cccnc2)c(C)s1
Mtb glucose medium: 5.245%
Mtb cholesterol medium: 0.5314%

SMILES: CN(c1ccccc1)c1ccc(CC2CCCN(CCO)C2)nn1 (stereo unspecified)
Mtb glucose medium: 8.541%
Mtb cholesterol medium: -2.924%

SMILES: [H][C@]12CNC[C@@]1(C(=O)N(C)Cc1nc(C)c[nH]1)CN(c1ncccn1)C2
Mtb glucose medium: 4.057%
Mtb cholesterol medium: -1.836%

SMILES: [H][C@@]12CCN(C3CCC3)[C@]1([H])CC[C@H](C(=O)NCCc1ccncc1)O2
Mtb glucose medium: 19.9% & -0.1575%
Mtb cholesterol medium: -4.973%

SMILES: Cc1nn(C)c(C)c1C(=O)NCc1cc(N(C)C)nc2ccccc12
Mtb glucose medium: -11.22%
Mtb cholesterol medium: -14.85%

SMILES: COCC1CN(C(=O)Cc2cccs2)Cc2nnn(CC3CC3)c21 (stereo unspecified)
Mtb glucose medium: -4.388%
Mtb cholesterol medium: -30.28%

SMILES: O=C(c1ccco1)N1CC(S(=O)(=O)c2ccc(Cl)cc2)C1
Mtb glucose medium: -1.497%
Mtb cholesterol medium: 10.28%

SMILES: Cn1nc(CNC(=O)c2nc3ccccc3s2)c2c1CCOC2
Mtb glucose medium: 9.545%
Mtb cholesterol medium: 16.03%

SMILES: O=C(O)C(F)(F)F.[H][C@@]12OCCN(Cc3ccc(F)cc3)[C@@]1([H])CC[C@H]2OCC1CCCC1
Mtb glucose medium: 16%
Mtb cholesterol medium: 0.4512%

SMILES: Cc1cnn(-c2ccc(C(=O)N3CCCC(n4ccnc4C)C3)cc2)c1 (stereo unspecified)
Mtb glucose medium: 3.424%
Mtb cholesterol medium: 5.741%

SMILES: CCC1CN(CC(=O)Nc2cc(C)nn2C)CCO1 (stereo unspecified)
Mtb glucose medium: 9.446%
Mtb cholesterol medium: -0.5079%

SMILES: CC1c2ncc(Cn3cncn3)n2CCN1C(=O)C1CCOCC1 (stereo unspecified)
Mtb glucose medium: 30.64%
Mtb cholesterol medium: 18.31%

SMILES: CC(=O)c1cccc(S(=O)(=O)NCCNC(=O)c2snnc2C)c1
Mtb glucose medium: -5.902%
Mtb cholesterol medium: -1.639%

SMILES: Cc1nc(C)n(C2CCCN(C(=O)c3ccc4[nH]nnc4c3)C2)n1 (stereo unspecified)
Mtb glucose medium: -15.27%
Mtb cholesterol medium: 0.6541%

SMILES: CC[C@H]1COCCN1C(=O)c1cnc(C(C)C)nc1C
Mtb glucose medium: -27.2% & -10.4%
Mtb cholesterol medium: -19.57%

SMILES: NC(=O)NC(CC(=O)NCCc1cccc(F)c1)c1ccccc1 (stereo unspecified)
Mtb glucose medium: -10.18%
Mtb cholesterol medium: -35.26%

SMILES: NC(=O)C1CCN(C(=O)NCc2ccccc2-n2cccn2)C1 (stereo unspecified)
Mtb glucose medium: -13.14%
Mtb cholesterol medium: -0.2424%

SMILES: CN1CCCc2cc(CNC(=O)c3ccc(NC4CC4)nc3)ccc21
Mtb glucose medium: -10.04%
Mtb cholesterol medium: 5.56%

SMILES: O=C(Nc1nc2c(s1)CN(S(=O)(=O)C1CC1)CC2)c1ccc(Cl)s1
Mtb glucose medium: -6.501%
Mtb cholesterol medium: -14.47%

SMILES: CN1CCC(CN(C)S(=O)(=O)CC2CCCCC2)CC1
Mtb glucose medium: -0.5453% & -0.7752%
Mtb cholesterol medium: 6.466% & -12.53%

SMILES: Cc1cnccc1Cn1ccnc1C1CCOC1 (stereo unspecified)
Mtb glucose medium: -23.12%
Mtb cholesterol medium: -32.61%

SMILES: Cc1nc(C(=O)N2CCN(S(C)(=O)=O)CC2)c(-c2cccc(F)c2)s1
Mtb glucose medium: -11.16%
Mtb cholesterol medium: -9.113%

SMILES: O=C(O)C(F)(F)F.[H][C@]12CCCN(Cc3nccs3)[C@@]1([H])CN(C(=O)c1ccco1)C2
Mtb glucose medium: 6.026%
Mtb cholesterol medium: -24.06%

SMILES: COc1cccc(OCC2CCCN(C(=O)CCc3cc(O)no3)C2)c1 (stereo unspecified)
Mtb glucose medium: 20.04% & 5.285%
Mtb cholesterol medium: 10.68%

SMILES: CN(C)C(=O)c1ccn(COc2ccccc2Cl)n1
Mtb glucose medium: -7.737%
Mtb cholesterol medium: -10.75%

SMILES: Cc1ccc(N2CCC3(CC2)CC(OCC(=O)N(C)C)CO3)nn1 (stereo unspecified)
Mtb glucose medium: -16.11%
Mtb cholesterol medium: -7.073%

SMILES: O=C(Nc1cnc(Oc2ccccc2F)nc1)C1CC1
Mtb glucose medium: 41.67% & 10.44%
Mtb cholesterol medium: 21.91%

SMILES: Cc1ccc(OC2CCN(C(=O)Cc3c(C)[nH]c(=O)[nH]c3=O)CC2)cc1
Mtb glucose medium: 30.02% & 0.9696%
Mtb cholesterol medium: 16.82%

SMILES: Cc1nc(C#N)c(N2CCC(c3nc(-c4ccc(F)cc4)no3)CC2)o1
Mtb glucose medium: -25.59%
Mtb cholesterol medium: -8.208%

Some entries from above, unchanged:

SMILES	Mtb glucose medium	Mtb cholesterol medium
CN1CCC(CN(C)S(=O)(=O)CC2CCCCC2)CC1	-0.5453% & -0.7752%	6.466% & -12.53%
COc1cccc(OCC2CCCN(C(=O)CCc3cc(O)no3)C2)c1 (stereo unspecified)	20.04% & 5.285%	10.68%
O=C(O)C(F)(F)F.[H][C@@]12OCCN(Cc3ccc(F)cc3)[C@@]1([H])CC[C@H]2OCC1CCCC1	16%	0.4512%

The values are deposited in ChEMBL (CHEMBL3988442, “University of Dundee, Small-Polar-MMV Screening Library” (2021)).